# Laboratory results published in the supplement of paper PMC10849652.
# By UniProt entry, the sequences of proteins in these tests, tags left out. Where a name states a change or a piece, a line headed by the entry shows the natural chain unless it says otherwise.
# UniProt Q9Y281, whole entry, looked up: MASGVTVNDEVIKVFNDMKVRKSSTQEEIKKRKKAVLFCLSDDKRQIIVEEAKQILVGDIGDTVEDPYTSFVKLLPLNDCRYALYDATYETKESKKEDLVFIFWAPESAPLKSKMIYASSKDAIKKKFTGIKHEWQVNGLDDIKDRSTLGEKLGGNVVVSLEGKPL
# UniProt Q9UEE9, whole entry, looked up: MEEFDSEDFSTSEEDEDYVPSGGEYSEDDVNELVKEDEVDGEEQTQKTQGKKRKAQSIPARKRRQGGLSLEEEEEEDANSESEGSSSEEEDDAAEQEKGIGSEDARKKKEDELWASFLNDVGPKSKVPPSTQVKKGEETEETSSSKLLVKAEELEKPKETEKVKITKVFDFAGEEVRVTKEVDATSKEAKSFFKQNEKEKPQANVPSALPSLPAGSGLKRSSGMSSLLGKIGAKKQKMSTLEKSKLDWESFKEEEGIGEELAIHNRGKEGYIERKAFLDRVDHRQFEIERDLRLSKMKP
# UniProt Q8IW35: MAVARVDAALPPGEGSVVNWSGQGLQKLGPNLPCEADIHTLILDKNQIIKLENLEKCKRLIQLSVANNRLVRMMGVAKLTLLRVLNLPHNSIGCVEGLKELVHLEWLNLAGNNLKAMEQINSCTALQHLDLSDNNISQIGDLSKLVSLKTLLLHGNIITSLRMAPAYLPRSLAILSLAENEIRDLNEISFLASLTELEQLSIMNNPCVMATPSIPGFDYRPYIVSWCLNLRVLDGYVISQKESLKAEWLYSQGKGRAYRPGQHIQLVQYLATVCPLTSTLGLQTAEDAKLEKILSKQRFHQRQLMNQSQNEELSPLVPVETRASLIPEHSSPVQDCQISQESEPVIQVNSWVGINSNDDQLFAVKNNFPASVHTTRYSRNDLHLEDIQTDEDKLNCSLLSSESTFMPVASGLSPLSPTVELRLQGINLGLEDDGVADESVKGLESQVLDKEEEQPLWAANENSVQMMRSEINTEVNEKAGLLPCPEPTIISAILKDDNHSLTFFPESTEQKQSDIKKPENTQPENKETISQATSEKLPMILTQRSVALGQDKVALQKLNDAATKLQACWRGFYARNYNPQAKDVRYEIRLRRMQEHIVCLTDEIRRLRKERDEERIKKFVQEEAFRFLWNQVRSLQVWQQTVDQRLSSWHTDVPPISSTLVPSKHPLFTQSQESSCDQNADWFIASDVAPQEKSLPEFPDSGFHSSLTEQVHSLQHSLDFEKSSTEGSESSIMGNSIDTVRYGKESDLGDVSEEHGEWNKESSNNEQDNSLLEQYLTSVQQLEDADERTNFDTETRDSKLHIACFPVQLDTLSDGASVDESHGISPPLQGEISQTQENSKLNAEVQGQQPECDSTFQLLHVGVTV
# UniProt Q99618: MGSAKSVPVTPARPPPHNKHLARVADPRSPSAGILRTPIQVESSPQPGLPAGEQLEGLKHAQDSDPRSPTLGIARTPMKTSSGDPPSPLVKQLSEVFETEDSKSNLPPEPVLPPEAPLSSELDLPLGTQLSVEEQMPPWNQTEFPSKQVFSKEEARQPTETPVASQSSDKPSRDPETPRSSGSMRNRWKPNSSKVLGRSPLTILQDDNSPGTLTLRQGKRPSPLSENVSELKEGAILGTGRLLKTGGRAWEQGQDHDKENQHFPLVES
# UniProt P60953, whole entry, looked up: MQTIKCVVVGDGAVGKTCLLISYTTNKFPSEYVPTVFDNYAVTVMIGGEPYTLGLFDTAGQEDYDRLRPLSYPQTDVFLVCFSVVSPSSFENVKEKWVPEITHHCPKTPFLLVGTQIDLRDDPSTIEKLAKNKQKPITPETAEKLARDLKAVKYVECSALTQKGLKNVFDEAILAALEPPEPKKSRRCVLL
# UniProt Q9H3R5: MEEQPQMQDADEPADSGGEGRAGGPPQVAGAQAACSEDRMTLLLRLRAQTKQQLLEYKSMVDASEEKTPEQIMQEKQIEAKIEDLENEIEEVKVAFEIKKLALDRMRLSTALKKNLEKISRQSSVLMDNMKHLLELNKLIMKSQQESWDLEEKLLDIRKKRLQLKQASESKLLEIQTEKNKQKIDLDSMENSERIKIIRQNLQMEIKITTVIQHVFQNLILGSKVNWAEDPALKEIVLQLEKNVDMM
# UniProt Q96G23: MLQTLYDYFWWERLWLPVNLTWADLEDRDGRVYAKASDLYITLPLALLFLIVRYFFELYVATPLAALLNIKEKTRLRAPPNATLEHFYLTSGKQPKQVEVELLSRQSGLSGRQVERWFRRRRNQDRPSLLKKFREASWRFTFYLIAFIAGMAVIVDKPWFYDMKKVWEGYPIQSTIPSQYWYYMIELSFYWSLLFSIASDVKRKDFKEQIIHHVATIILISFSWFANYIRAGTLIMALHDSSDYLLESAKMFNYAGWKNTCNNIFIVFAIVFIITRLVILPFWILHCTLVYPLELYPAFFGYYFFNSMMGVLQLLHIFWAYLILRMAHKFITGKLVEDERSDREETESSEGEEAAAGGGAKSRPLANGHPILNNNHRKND
# UniProt Q9BS16: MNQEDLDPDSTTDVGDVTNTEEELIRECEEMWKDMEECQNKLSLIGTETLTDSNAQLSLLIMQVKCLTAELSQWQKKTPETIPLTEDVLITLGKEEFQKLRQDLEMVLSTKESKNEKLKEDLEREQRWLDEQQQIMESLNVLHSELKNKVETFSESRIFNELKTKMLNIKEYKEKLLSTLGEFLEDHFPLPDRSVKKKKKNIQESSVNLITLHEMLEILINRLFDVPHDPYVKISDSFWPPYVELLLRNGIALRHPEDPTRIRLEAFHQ
# UniProt Q8NHZ8, whole entry, looked up: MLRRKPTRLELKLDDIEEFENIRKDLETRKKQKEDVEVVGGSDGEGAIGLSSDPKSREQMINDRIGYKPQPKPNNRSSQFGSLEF
# UniProt Q71F23: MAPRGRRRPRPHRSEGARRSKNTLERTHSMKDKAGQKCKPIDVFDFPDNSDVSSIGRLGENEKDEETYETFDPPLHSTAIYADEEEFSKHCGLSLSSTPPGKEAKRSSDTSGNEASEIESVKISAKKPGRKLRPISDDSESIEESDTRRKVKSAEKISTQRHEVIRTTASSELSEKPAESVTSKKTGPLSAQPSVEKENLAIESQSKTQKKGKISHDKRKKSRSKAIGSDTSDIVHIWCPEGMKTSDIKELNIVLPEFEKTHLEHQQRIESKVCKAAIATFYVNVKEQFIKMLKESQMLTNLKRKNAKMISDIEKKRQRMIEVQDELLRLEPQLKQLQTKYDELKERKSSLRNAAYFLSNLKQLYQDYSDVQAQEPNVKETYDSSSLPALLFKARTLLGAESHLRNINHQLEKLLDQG
# UniProt Q5VV42: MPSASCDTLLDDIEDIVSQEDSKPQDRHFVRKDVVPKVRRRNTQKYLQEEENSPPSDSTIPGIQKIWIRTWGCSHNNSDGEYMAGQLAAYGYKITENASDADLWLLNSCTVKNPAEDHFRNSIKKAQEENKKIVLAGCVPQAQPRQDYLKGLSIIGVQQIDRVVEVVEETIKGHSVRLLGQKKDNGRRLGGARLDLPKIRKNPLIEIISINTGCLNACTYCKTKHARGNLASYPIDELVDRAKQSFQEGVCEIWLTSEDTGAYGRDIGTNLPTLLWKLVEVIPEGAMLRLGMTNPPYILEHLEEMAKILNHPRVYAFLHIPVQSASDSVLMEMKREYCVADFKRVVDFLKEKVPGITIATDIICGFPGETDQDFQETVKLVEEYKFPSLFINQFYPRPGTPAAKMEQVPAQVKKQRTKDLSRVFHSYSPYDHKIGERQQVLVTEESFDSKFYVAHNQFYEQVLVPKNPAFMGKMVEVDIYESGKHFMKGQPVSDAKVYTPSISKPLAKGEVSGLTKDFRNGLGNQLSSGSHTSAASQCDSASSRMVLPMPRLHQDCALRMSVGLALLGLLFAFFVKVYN
# UniProt Q66GS9: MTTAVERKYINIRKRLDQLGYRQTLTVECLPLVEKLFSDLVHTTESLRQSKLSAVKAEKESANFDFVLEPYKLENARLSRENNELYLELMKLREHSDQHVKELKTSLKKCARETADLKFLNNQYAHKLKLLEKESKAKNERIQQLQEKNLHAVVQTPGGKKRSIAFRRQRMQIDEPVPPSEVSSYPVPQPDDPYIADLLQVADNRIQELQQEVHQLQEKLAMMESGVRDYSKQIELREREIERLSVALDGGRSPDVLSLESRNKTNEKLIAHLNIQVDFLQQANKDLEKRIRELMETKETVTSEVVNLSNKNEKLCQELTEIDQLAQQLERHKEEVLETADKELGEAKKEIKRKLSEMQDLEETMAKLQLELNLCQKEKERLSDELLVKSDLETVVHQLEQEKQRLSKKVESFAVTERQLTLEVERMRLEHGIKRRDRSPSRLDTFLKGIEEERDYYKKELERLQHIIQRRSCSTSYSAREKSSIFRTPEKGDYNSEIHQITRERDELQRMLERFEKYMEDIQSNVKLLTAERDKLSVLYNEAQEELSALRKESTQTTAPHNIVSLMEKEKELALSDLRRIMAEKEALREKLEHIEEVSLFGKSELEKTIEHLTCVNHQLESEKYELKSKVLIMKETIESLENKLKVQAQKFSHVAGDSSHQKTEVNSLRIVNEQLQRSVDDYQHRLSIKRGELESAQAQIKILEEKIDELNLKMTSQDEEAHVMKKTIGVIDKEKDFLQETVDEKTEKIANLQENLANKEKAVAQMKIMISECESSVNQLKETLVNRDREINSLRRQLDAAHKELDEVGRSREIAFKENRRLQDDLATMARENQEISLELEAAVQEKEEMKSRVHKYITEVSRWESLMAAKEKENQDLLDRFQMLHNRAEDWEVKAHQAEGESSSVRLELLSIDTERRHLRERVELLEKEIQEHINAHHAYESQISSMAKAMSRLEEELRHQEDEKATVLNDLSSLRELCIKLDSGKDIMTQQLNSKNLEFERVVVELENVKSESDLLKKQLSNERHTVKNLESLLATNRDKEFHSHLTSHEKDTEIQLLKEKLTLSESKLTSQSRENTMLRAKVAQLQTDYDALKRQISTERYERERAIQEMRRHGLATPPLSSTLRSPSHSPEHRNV
# UniProt Q9BWU1: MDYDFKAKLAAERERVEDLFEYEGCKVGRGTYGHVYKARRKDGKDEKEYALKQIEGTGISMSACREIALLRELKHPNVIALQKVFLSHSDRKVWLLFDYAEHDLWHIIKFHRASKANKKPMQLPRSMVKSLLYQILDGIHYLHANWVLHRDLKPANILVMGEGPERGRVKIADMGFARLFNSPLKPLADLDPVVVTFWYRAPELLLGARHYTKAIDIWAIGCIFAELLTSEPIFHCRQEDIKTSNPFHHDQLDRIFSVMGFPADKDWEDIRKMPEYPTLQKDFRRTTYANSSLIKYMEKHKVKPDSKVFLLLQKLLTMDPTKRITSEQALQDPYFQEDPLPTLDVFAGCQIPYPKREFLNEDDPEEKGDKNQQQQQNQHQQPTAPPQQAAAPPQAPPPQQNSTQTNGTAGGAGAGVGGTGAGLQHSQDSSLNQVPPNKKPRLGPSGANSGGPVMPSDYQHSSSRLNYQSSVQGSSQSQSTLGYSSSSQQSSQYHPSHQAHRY
# UniProt Q8TAP6: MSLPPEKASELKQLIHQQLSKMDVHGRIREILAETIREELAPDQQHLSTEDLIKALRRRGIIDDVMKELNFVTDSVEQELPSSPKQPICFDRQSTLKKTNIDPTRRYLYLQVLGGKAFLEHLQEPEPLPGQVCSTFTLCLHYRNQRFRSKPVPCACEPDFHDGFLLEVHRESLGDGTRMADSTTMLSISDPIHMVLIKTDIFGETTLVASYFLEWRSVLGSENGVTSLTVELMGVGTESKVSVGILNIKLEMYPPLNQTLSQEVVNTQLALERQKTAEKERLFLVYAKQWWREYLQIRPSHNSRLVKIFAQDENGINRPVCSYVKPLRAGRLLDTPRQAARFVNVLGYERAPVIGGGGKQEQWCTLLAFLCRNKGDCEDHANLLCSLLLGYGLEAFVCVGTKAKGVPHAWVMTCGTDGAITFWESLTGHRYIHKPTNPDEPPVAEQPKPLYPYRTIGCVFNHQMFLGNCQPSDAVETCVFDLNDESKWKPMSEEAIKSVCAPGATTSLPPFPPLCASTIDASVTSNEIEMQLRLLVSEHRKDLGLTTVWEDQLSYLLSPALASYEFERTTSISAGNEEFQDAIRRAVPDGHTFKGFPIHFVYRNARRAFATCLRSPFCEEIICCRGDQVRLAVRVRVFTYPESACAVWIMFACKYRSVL
# UniProt O14735: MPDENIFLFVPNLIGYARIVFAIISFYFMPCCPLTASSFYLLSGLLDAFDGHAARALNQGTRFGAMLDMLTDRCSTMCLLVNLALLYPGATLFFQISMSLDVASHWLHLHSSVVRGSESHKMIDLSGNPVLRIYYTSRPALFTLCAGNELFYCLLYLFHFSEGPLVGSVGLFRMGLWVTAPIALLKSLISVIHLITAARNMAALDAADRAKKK
# UniProt P41208: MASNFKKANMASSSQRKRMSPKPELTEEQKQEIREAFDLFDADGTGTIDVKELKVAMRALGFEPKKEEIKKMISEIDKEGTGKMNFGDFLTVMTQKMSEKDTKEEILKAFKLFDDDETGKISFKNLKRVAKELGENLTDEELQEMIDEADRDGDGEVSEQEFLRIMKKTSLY
# UniProt Q8N2Z9: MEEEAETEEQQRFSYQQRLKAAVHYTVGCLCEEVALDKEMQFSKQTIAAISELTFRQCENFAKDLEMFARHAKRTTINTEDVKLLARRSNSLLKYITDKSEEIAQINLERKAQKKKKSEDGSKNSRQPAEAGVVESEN
# This is one part of the list.
# Compound: CNC(=O)c1ccc(Nc2ncc(C(F)(F)F)c(NCc3nccnc3N(C)S(C)(=O)=O)n2)cc1 [defactinib]
# Test: log2 fold change, soluble protein after heating vs DMSO (PISA); higher = thermal stabilisation; K562 lysate, 10 uM; active = over 0.2 and 3.5 SD of the protein, either way, in both replicates (recomputed)
# Summary of the method: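 Pellets of K562 cells were dounce-homogenised in PBS pH 7.4 with 1 mM MgCl2, and the crude extract was held at 1 mg/mL protein for a 30 min treatment with 10 μM compound. Aliquots were heated for 3 min over 48°C-58°C and pooled before NP-40 was added to 0.5% at 4°C. The supernatant from 21,000xg for 90 min was quantified by TMTpro 16plex LC-MS/MS with channel sums equalised. Values are reported from duplicates as log-two fold change in thermal stability relative to solvent controls.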
row,Target,log2 fold change
1,CEP350 (UniProt Q5VT06),inactive: -0.029
2,CEP170 (UniProt Q5SW79),inactive: -0.097
3,CFH (UniProt P08603),inactive: -0.007
4,CFL2 (UniProt Q9Y281),inactive: 0.139
5,CFDP1 (UniProt Q9UEE9),inactive: -0.01
6,CEP97 (UniProt Q8IW35),inactive: -0.024
7,CDCA3 (UniProt Q99618),inactive: 0.029
8,CDC42 isoform 1 (UniProt P60953),inactive: -0.094
9,CENPH (UniProt Q9H3R5),inactive: -0.038
10,CERS2 (UniProt Q96G23),inactive: 0.046
11,CDC45 isoform 3 (UniProt O75419),inactive: 0.028
12,CFL1 (UniProt P23528),inactive: 0.029
13,CENPK (UniProt Q9BS16),inactive: -0.003
14,CDCP1 (UniProt Q9H5V8),inactive: -0.036
15,CDC26 (UniProt Q8NHZ8),inactive: 0.135
16,CENPU (UniProt Q71F23),inactive: -0.05
17,CDC42BPB (UniProt Q9Y5S2),inactive: -0.072

# Part of the list above, tab-delimited:
row	Target	log2 fold change
2	CEP170 (UniProt Q5SW79)	inactive: -0.097
3	CFH (UniProt P08603)	inactive: -0.007
6	CEP97 (UniProt Q8IW35)	inactive: -0.024
8	CDC42 isoform 1 (UniProt P60953)	inactive: -0.094
11	CDC45 isoform 3 (UniProt O75419)	inactive: 0.028
12	CFL1 (UniProt P23528)	inactive: 0.029
13	CENPK (UniProt Q9BS16)	inactive: -0.003
14	CDCP1 (UniProt Q9H5V8)	inactive: -0.036

# Following part

row,Target,log2 fold change
1,CEP85 isoform 2 (UniProt Q6P2H3),inactive: 0.063
2,CDKAL1 (UniProt Q5VV42),inactive: 0.02
3,CEP135 (UniProt Q66GS9),inactive: 0.008
4,CDK19 (UniProt Q9BWU1),inactive: 0
5,CEP76 (UniProt Q8TAP6),inactive: 0.084
6,CDIPT (UniProt O14735),inactive: 0.02
7,CDR2 (UniProt Q01850),inactive: 0.106
8,CDC40 (UniProt O60508),inactive: -0.002
9,CDC42 (UniProt P60953),inactive: -0.052
10,CETN2 (UniProt P41208),inactive: 0.02
11,CDC23 (UniProt Q9UJX2),inactive: 0.002
12,CDK2AP1 (UniProt O14519),inactive: 0.067
13,CDC37L1 (UniProt Q7L3B6),inactive: 0.021
14,CENPS (UniProt Q8N2Z9),inactive: 0.073
15,CDC5L (UniProt Q99459),inactive: 0.003
16,CERS6 isoform 2 (UniProt Q6ZMG9),inactive: 0.019
